At least one structure is not confirmed: it was looked up by name or label, or the drawing left a doubt.
Test system: healthy human subjects
Test: 24-hour intravenous ambrisentan infusion in healthy human subjects: urine output, water balance, free water clearance
Format: in vivo
Settings: for Free water clearance (FWC): formula of Edelman, FIG. 1
Protocol: A study was performed to determine whether lower concentrations of ambrisentan in blood are less likely to produce renal side effects as those seen with current concentrations achieved with the current commercial presentation of ambrisentan. In this study a liquid composition of ambrisentan at a concentration of 5 mg/mL was administered to 20 healthy human subjects at varying rates of administration in order to achieve different ambrisentan concentrations in blood and over a period of 24 hours. Target concentrations in the low dose group were 20 and 40 ng/mL (Group A) after 4 hours and 16 hours respectively, and 80 and 160 ng/mL in the high dose group (Group B) after 4 hours and 16 hours respectively. […] Steady state for each target concentration was maintained for at least 8 hours prior to increasing the concentration. Ten subjects were assigned to Group A and ten subjects to Group B. Pharmacokinetic and plasma ET-1 samples were collected and analysed at different timepoints for up to 72 hours. Urine was collected for 24 hours and in intervals from 0-2 hours, 2-4 hours, 4-8 hours, 8-12, hours, 12-18 hours and 18-24 hours.
All subjects received a 100 ml/hr infusion of 0.45% physiological solution for 24 hours and ambrisentan was administered in a 250-mL solution of 0.9% of physiological solution over a period of 24 hours. Subjects had free access to water and a normal diet. At a minimum, subjects received through intravenous infusion a total of 2650 mL of water and 223.3 mmol of sodium in the 24-hour period of drug administration.
The effect on urine was consistent throughout the different collection periods of the 24-hour infusion period. Patients in Group A maintained higher urinary output rates throughout the study as compared to Group B. In the Tables Below, Water Balance is the result of subtracting urine volume from intravenous liquid input.
The increase in urine formation (diuresis) was further characterised by determining the effect of ambrisentan on urine composition, specifically urine osmolality.

COC(c1ccccc1)(c1ccccc1)[C@H](Oc1nc(C)cc(C)n1)C(=O)O [ambrisentan]
total urine output in 24 hours (Group A (low dose) compared to Group B (high dose)): higher total urine output in 24 hours when compared to Group B | Free water clearance (FWC) (Group A (low dose)): higher in Group A than in Group B | Free water clearance (FWC) (Group B (high dose)): remained near or below zero | pharmacodynamic effect on diuresis (at low concentrations of ambrisentan): promotes diuresis by increasing urinary volume | diuretic effect (total ambrisentan below 20 ng/mL): show a diuretic effect, predominantly in the clearance of free water

Source: patent US11642307B2, “Ambrisentan for use in the treatment of acute renal failure” (Noorik Biopharmaceuticals AG, priority 2016, dated 2023)
